According to PubChem BioAssay AID504834 (National Center for Advancing Translational Sciences (NCATS), 2011):
The whole screen tested about 320,000 compounds, of which about 22,000 (6.9%) were called active. The inconclusive results got no clear call from the source; some entries with a clear call stand among them for comparison. Calls come from the whole dose curve; as a rule, active = well fitted inhibition curve with a large enough effect; inconclusive = small, poorly fitted or top-dose-only effect, or another doubt; inactive = no such curve, though single readings can be large or run the other way. Potencies beside an inconclusive call are fits to weak or partial responses and may not hold up.

Assay: Primary qHTS for delayed death inhibitors of the malarial parasite plastid, 96 hour incubation
Details: P. falciparum luciferase reporter growth; series mostly up to 28.7 µM
Summary of the method: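 96 h incubation, 37 C, 5% CO2, of luciferase-reporter P. falciparum-infected RBCs (2% hematocrit, 0.05% parasitemia final) with test compounds; endpoint luminescence.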
Potency is the fitted concentration of half-maximal effect.

| SMILES | Potency |
| --- | --- |
| CCC1(c2ccccc2)NC(=O)N(CC(=O)Nc2cc(C(F)(F)F)ccc2N2CCCC2)C1=O (stereo not given) | inconclusive: 6.57 µM [inhibitor, partial curve] |
| COc1ccc(CNc2ncc(-c3ccccc3)n2C)c2ccccc12 | inconclusive: 3.29 µM [inhibitor, single point] |
| O=C(CSc1nnc(-c2ccccn2)n1Cc1ccccc1)NC1CCCC1 | inconclusive: 0.37 µM [inhibitor, partial curve, poor fit] |
| O=C(NC1CCN(Cc2ccccc2)CC1)c1c(F)cccc1F | inactive |
| CC(C(=O)N1CCN(c2ccccc2F)CC1)c1ccc([N+](=O)[O-])cc1 (stereo not given) | active: 9.28 µM |
| CC1=C([N+](=O)[O-])C(c2ccccc2C(F)(F)F)NC(=O)N1C (stereo not given) | inactive |
| O=C(c1cnn2ccccc12)N1CCN(C2CCCCC2)CC1 | inactive |
| COc1ccc(CCC(=O)NCCc2ccc(OC)c(OC)c2)cc1 | inconclusive: 1.17 µM [inhibitor, partial curve, poor fit] |
| Cc1cc2[nH]c3ccccc3c2cn1 | inconclusive: 14.7 µM [inhibitor, single point] |
| CC(C)c1nc(N2CCN(C(=O)c3ccco3)CC2)c2c3c(sc2n1)CCCC3 | inactive |
| COc1cc(/C=N/N=C(N)N)ccc1OCc1ccccc1Cl | inactive |
| COC(=O)C(O)(c1ccc(N(C)S(=O)(=O)c2ccccc2)cc1)C(F)(F)F (stereo not given) | inconclusive: 10.4 µM [inhibitor, single point] |
| Cc1ccc(Oc2nc(CN3CCOCC3)nc3sc4c(c23)CCC(C)C4)cc1 (stereo not given) | inconclusive: 11.7 µM [inhibitor, single point] |
| COc1cccc(-n2c(C)cc(/C=C3/C(=N)N4C(=NC3=O)SN=C4S(C)(=O)=O)c2C)c1 | inconclusive: 1.85 µM [inhibitor, single point] |
| COCCCN1CC(=O)N2C(c3cccc(C)c3)c3[nH]c4ccccc4c3C[C@H]2C1=O (stereo not given in full) | inconclusive: 10.4 µM [inhibitor, partial curve] |
| CCN1CCCC1CNS(=O)(=O)c1ccc(Br)cc1 (stereo not given) | inconclusive: 4.15 µM [inhibitor, single point] |
| OCCN1CCN(C(c2cccs2)c2ccc3cccnc3c2O)CC1 (stereo not given) | inactive |
| CCOc1ccc2[nH]c(=O)c(C(c3nnnn3Cc3ccco3)N3CCN(C)CC3)cc2c1 (stereo not given) | inconclusive: 2.94 µM [inhibitor, full curve] |
| Cc1ccc(C(=O)/C=C/Nc2ccc3c(c2)OCO3)cc1 | inconclusive: 18.5 µM [inhibitor, single point] |
| Cc1ccc(CN2CCC(c3nc4ccc(Cl)cc4[nH]3)CC2)cc1 | inconclusive: 11.7 µM [inhibitor, single point] |

Part of the list above in another layout.
SMILES	Potency
COc1ccc(CCC(=O)NCCc2ccc(OC)c(OC)c2)cc1	inconclusive: 1.17 µM [inhibitor, partial curve, poor fit]
CCN1CCCC1CNS(=O)(=O)c1ccc(Br)cc1 (stereo not given)	inconclusive: 4.15 µM [inhibitor, single point]
